Data on three compounds can be found in patent US8034817B2, “Treatment of bacterial diseases of the respiratory organs” (Bayer Pharma Aktiengesellschaft, priority 2003, dated 2011).

For the series the following is noted: for AUC / Cmax: lungs; for Lung concentration: 0.25 h, average for 3 animals.
[1] abbreviates: intratracheal administration, 7.5 mg/kg, rats.
The mark [2] stands for this setting: rats, 7.5 mg/kg intratracheally as suspension, 7.5 mg/kg.
Where [3] appears, read: rats, 7.5 mg/kg intratracheally as solution.
The mark [4] stands for this setting: rats, 7.5 mg/kg intravenously as solution.

Like-named read-outs stand apart in the source and are kept apart here.

Usually AUC stands for the area under the concentration-time curve, a measure of exposure. What is called Cmax is the maximum level reached in the sampled fluid or tissue. Take `O=C(O)c1cn(C2CC2)c2cc(N3CCNCC3)c(F)cc2c1=O` [ciprofloxacin betaine (micronized), ciprofloxacin betaine]: under setting [1], the “AUC (lungs), factor compared with intravenous administration of ciprofloxacin hydrochloride” value is on record as 612 and the “Cmax (lungs), factor compared with intravenous administration of ciprofloxacin hydrochloride” value was 125. In addition, under setting [2], the area under the curve (AUC) came to 304000 ng·h/mL and the maximum concentration (Cmax) is 76000 ng/mL.

Regarding `O=C(O)c1cn(C2CC2)c2cc(N3CCNCC3)c(F)cc2c1=O` [ciprofloxacin betaine (laboratory product)], the Lung concentration (7.5 mg/kg intratracheally as suspension, 7.5 mg/kg) amounted to 49.1 µg/mL. Under setting [2], this compound registered an AUC of 124000 ng·h/mL and a Cmax of 49100 ng/mL.

As for `Cl.O=C(O)c1cn(C2CC2)c2cc(N3CCNCC3)c(F)cc2c1=O` [ciprofloxacin hydrochloride], the Lung concentration (7.5 mg/kg intratracheally as solution) is 6.65 µg/mL. Also, under setting [3], the AUC is 3200 ng·h/mL and the highest concentration (Cmax) is 6650 ng/mL. Further, under setting [4], the AUC came out at 497 ng·h/mL and the Cmax came out at 610 ng/mL.
